A: 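Assay on Mycobacterium tuberculosis, filed only as a heat shock assay from Cornell; the read-out is not stated. The concentration is filed as 10 mM, unlikely as a test dose, so the dose is not known. Higher reads as stronger inhibition (inferred: compounds with an IC50 in retests scored well above the rest). Size under these conditions: about 69,000 compounds, about 930 of them at 50% or above in at least one test.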
B: 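Methionyl-tRNA synthetase (putative), Leishmania donovani (UniProt E9BF75). Primary screen of methionyl-tRNA synthetase; the read-out is not stated. The test concentration is not given. The values are filed as inhibition. About 68,000 compounds were tested under these conditions; 0.035% (about 24) showed 50% or more at least once.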
C: 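Whole-cell assay for inhibitors of Mycobacterium tuberculosis growth, labelled Cornell in the record; the read-out is not stated. The concentration is filed as 10 mM, unlikely as a test dose, so the dose is not known. Higher means stronger inhibition (inferred from two other growth screens of the library). Of about 53,000 compounds tested this way, about 900 (1.7%) reached 50% or more in at least one test.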

Sequences of proteins named here, by UniProt entry; tags and fusion partners are left off.
UniProt E9BF75, entry or part of it: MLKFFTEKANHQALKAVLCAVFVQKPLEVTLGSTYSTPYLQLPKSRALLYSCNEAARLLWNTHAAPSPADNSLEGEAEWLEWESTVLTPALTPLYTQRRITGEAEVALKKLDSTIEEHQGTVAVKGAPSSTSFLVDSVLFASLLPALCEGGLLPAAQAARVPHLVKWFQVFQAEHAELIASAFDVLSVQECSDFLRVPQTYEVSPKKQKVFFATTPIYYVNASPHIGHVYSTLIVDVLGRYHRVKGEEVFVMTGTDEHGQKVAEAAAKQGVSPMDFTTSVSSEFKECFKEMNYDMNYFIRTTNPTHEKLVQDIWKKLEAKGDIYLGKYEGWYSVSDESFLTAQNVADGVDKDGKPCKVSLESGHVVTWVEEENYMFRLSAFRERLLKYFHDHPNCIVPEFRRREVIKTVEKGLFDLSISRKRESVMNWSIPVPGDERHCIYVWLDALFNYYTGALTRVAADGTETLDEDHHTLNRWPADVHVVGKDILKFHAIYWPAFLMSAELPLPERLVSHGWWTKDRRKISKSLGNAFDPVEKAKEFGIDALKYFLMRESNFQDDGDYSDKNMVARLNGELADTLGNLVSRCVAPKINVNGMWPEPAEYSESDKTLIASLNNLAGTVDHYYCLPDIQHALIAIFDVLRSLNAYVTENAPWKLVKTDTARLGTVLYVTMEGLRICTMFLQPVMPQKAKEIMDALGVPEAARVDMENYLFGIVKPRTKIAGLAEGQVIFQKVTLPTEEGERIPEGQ

Results are percentages, as filed.
How 0% and 100% were set is not recorded. Most values in the screen are low, and negative values occur.
Compounds were drawn at random from those tested, without regard to their results.

* Cc1cccc(CN2CCCn3c(nnc3CN3CCCC3=O)C2)n1.O=C(O)C(F)(F)F : A: -8.2%; C: 26.69%
* O=C1NCCN(Cc2cccnc2)C1CC(=O)N1CCc2n[nH]cc2C1 (stereo not drawn) : A: -167.5%; B: 11.18%
* O=C(CCc1nc2cc(Br)cnc2[nH]1)NCCCn1ccnc1 : A: -22.58%; B: 11.08%; C: 19.08%
* C[C@]1(O)CN(Cc2ncccc2F)CC[C@@H]1Oc1cccc(F)c1 : A: 32.25%; B: 12.47%
* Cc1ccc(C(=O)N(Cc2cccnc2)C[C@@H]2CCC(=O)N2)s1 : A: -17.5%; B: 0.3521%; C: -34.62%
* CS(=O)(=O)CCNCc1ccc(OCc2ccccn2)cc1 : A: -5.344%; B: 9.441%; C: 5.529%
* Cl.Cn1nc(C2CCCN(Cc3cccc(F)c3)C2)c2nccnc21 (stereo not drawn) : A: -14.86%; C: -16.6%
* Cc1cccc(C(C(=O)N2CCN(C(=O)c3ccc[nH]3)CC2)N(C)C)c1 (stereo not drawn) : A: -1.896%; B: 5.108%; C: -7.463%
* Cc1ccc(-c2ccnc(NCC(O)c3ccc(O)cc3)n2)c(C)n1 (stereo not drawn) : A: -10.8%; B: 12.23%; C: 39.33%
* COCC1CC2(CCN(Cc3cccnc3)CC2)CN1c1ncccn1 (stereo not drawn) : B: 15.56%
* CC(=O)Nc1nc(C(=O)NCCOc2ccccc2F)cs1 : A: 3.608%; B: 8.361%; C: 7.167%
* CN(C)CC(=O)N1CCC2(CC1)CN(c1ccsc1)C(=O)CO2 : B: 3.136%
* CCCc1nc(C(=O)N2CCN(C(=O)c3ccc(OC)cc3)CC2)cs1 : A: -22.92%; B: 16.19%; C: 12.97%
* CN(C)C(=O)c1nn(C)c2c1CN(Cc1cccs1)C2.O=C(O)C(F)(F)F.O=C(O)C(F)(F)F : A: -61.13%; C: 9.818%
* C[C@@H]1CN(Cc2nc(C(N)=O)no2)CC[C@@]1(O)C1CCOCC1 : A: -26.06%; B: 11.85%
* CC(C)(C)NC(=O)c1cccc(CN2CCS(=O)(=O)CC2)c1 : A: 12.13%; B: 5.426%; C: 3.207%
* O=C(O)C(F)(F)F.O=C(O)C(F)(F)F.O=C1COC2(CCN(Cc3ccncc3)CC2)CN1 : A: -17.34%; C: 24.3%
* COCC(=O)N1Cc2c(-c3cccc(C)c3)nc(N)nc2C1C (stereo not drawn) : A: -2.468%; B: 8.043%; C: 27.3%
* C[S+]([O-])c1cccc(NC(=O)N(CCC#N)Cc2ccccn2)c1 (stereo not drawn) : A: 5.694%; B: 4.348%; C: -19.14%
* CCOCC1CCN(C(=O)C(c2ccccc2F)N(C)C)CC1 (stereo not drawn) : A: -0.05824%; B: 21.14%; C: 28.27%
* Cc1cc(=O)n2ncnc2n1CC(O)c1cc(Cl)ccc1Cl (stereo not drawn) : A: 13.34%; B: 13.54%; C: 10%
* Cc1ccc(NC(=O)CN2CCCNC2=O)c(SC(F)(F)F)c1 : A: 3.743%; B: 16.43%
* CNCc1cn(CC2CCN(Cc3cccs3)CC2)nn1 : A: -22.29%; B: 3.015%; C: -24.39%
* COC(=O)c1ccc(N2CCN(C(=O)C(C)C)C(C)C2)cc1 (stereo not drawn) : A: -21.81%; B: 11.56%; C: 11.55%
* Cc1ccc(CNCC(C)Oc2ccccn2)cc1.Cl (stereo not drawn) : A: -12.77%; C: -9.059%
* Cc1ccc(CN(C)C(=O)c2cc(Cn3ccnc3C(C)C)[nH]n2)o1 : A: -0.5237%; B: 9.483%; C: 10.99%
* COCCN(C)Cc1ccc(OC)c(OC(F)F)c1 : A: -31.91%; B: 3.937%; C: 15.54%

The last 2 entries again:

{"smiles": "Cc1ccc(CN(C)C(=O)c2cc(Cn3ccnc3C(C)C)[nH]n2)o1", "A": -0.5237, "B": 9.483, "C": 10.99}
{"smiles": "COCCN(C)Cc1ccc(OC)c(OC(F)F)c1", "A": -31.91, "B": 3.937, "C": 15.54}

The values are deposited in ChEMBL (CHEMBL3988442, “University of Dundee, Small-Polar-MMV Screening Library” (2021)).